Source: the supplement of paper PMC10060354, “Discovery of a small molecule ligand of FRS2 that inhibits invasion and tumor growth” (Cellular Oncology, 2022)

Protein sequences, listed by entry. Tags and fused reporters are not part of them. Lines headed by an entry give the natural chain unless they say otherwise; changes in a name come on top.
UniProt Q12905: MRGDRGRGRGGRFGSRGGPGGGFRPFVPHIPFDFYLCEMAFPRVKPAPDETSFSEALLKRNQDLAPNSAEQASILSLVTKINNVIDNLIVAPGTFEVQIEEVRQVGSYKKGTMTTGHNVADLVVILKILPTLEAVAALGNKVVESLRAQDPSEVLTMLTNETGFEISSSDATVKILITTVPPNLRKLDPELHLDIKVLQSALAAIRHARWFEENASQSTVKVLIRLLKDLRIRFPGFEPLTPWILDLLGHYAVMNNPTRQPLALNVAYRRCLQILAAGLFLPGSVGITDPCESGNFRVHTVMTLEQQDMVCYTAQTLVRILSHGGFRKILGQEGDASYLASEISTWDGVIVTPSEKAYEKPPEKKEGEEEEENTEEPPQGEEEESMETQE
UniProt Q9Y2B0: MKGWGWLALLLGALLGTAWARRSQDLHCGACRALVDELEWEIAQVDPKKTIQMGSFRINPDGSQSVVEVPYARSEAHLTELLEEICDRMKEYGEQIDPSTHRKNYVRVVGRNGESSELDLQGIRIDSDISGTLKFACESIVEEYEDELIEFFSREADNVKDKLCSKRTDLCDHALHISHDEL
UniProt Q8N3X1: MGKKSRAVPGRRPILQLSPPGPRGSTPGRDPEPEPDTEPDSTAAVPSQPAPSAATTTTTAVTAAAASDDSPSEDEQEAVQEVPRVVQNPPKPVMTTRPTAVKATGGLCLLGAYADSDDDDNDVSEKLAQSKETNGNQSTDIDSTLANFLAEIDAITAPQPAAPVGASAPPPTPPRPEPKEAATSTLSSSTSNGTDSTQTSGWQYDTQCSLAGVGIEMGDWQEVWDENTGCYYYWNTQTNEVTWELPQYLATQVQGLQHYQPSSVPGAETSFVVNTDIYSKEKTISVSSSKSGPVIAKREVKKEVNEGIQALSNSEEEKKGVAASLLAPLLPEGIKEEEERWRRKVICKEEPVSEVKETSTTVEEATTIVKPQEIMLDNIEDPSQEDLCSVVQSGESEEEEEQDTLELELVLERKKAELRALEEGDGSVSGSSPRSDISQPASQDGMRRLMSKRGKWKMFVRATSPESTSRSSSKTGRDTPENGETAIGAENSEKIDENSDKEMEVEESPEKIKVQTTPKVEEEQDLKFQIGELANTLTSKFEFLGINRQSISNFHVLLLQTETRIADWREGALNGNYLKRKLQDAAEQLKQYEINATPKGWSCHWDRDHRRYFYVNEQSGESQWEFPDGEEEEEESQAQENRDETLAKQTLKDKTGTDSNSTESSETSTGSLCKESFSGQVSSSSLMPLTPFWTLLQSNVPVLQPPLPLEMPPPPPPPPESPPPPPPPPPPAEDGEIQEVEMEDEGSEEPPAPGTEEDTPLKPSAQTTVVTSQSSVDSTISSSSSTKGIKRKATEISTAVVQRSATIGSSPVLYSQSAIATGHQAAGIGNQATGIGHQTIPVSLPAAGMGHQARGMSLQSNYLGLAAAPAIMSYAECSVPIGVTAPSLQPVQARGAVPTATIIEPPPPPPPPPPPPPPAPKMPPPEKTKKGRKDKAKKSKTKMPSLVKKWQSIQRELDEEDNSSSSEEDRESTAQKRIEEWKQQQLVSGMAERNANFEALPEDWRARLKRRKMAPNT
UniProt Q5SRE5: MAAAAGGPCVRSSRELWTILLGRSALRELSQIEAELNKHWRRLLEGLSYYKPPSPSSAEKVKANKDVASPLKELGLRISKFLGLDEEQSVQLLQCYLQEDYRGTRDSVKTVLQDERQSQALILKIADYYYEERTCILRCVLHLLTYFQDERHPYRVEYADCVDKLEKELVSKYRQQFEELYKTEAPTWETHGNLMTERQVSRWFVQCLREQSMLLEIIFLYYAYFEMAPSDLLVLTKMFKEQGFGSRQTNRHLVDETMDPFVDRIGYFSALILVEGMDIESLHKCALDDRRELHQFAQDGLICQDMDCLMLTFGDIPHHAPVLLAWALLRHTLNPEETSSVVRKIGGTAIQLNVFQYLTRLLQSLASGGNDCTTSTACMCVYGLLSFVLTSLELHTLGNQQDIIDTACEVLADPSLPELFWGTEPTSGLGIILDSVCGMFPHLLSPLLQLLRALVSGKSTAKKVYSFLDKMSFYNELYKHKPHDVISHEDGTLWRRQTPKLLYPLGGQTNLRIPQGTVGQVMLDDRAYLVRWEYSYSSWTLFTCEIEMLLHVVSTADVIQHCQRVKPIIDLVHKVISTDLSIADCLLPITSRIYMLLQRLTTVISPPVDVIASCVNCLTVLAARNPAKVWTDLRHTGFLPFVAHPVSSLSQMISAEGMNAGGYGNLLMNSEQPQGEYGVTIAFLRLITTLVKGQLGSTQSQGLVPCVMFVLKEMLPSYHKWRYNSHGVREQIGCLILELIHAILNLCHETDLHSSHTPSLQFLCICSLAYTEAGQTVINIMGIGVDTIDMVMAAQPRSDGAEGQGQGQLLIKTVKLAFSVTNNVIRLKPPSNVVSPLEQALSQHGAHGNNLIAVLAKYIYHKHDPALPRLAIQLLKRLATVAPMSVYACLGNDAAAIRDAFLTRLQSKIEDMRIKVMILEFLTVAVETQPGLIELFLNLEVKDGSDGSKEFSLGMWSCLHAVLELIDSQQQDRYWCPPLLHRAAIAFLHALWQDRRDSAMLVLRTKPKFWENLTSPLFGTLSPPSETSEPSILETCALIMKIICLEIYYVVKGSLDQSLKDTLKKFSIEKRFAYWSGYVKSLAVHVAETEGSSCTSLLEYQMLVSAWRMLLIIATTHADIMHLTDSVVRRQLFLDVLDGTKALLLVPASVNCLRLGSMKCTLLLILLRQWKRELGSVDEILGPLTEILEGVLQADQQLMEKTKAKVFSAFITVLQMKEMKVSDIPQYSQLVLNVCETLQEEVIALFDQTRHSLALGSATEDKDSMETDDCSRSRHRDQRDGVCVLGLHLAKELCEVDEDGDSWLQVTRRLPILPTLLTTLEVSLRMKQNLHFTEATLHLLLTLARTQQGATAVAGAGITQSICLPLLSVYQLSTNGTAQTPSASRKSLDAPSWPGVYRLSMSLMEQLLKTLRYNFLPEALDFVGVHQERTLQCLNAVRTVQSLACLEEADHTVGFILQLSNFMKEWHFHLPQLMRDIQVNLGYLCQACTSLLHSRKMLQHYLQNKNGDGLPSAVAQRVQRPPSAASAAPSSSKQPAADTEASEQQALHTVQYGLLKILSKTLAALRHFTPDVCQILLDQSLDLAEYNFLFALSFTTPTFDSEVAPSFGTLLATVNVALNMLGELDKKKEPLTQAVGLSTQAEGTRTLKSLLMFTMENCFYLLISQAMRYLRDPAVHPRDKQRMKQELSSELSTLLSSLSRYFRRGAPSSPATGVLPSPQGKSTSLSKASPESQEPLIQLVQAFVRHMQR
UniProt P63218: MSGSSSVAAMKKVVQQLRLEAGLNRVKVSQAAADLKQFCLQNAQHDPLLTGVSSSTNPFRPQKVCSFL
UniProt Q9NNX1: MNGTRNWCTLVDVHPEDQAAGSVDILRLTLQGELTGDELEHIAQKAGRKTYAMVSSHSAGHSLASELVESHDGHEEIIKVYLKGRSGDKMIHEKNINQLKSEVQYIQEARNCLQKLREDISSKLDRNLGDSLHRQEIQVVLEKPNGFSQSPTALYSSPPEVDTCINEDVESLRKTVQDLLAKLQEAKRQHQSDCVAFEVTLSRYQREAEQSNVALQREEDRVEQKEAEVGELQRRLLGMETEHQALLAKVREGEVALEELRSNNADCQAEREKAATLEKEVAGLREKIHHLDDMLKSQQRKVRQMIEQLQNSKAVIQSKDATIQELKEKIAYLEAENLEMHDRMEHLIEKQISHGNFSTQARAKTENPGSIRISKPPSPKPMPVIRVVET
UniProt Q8TBC4: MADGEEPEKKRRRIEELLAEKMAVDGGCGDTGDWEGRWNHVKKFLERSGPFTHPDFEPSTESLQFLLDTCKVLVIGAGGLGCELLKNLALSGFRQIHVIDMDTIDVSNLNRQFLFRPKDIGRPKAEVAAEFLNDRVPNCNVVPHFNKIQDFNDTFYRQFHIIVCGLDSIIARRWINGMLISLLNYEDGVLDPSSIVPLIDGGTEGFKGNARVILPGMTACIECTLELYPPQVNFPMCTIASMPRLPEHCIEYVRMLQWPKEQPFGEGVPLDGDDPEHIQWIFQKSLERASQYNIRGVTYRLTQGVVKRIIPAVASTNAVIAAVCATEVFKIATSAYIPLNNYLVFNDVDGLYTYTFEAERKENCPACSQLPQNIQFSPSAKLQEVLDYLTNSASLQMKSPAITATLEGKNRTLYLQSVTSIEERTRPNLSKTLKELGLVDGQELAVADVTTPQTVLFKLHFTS
UniProt Q14320: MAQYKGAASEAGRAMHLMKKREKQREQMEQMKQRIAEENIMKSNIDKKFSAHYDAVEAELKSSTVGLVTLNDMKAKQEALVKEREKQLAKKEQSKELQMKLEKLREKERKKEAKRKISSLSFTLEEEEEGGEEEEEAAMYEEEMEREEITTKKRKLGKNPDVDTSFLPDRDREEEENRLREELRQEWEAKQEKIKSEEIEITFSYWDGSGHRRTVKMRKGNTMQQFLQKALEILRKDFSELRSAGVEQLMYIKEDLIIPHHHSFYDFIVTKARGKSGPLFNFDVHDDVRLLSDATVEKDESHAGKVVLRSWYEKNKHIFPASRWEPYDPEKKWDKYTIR
UniProt P61086: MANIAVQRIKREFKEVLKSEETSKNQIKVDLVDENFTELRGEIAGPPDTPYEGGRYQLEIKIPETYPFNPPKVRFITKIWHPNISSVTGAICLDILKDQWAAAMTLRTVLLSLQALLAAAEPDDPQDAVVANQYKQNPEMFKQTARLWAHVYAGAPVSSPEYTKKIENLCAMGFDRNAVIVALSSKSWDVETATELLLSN
UniProt Q9H7F4: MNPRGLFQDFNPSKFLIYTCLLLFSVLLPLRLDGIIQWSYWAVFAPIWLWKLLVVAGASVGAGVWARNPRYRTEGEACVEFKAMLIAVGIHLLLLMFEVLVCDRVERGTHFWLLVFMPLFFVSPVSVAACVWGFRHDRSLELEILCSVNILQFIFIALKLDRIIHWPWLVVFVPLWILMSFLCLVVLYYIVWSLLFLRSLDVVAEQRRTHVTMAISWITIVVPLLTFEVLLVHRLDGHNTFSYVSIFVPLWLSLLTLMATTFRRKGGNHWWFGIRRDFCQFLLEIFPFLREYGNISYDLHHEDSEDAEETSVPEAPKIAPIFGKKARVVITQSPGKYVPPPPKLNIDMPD
UniProt P48060: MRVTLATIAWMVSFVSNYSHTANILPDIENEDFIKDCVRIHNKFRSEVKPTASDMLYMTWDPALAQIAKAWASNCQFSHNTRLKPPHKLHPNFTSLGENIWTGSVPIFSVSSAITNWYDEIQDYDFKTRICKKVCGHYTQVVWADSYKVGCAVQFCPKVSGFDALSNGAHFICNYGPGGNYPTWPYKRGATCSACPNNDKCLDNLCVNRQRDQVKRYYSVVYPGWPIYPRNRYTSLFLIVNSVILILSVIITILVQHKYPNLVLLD
UniProt P12004, whole entry: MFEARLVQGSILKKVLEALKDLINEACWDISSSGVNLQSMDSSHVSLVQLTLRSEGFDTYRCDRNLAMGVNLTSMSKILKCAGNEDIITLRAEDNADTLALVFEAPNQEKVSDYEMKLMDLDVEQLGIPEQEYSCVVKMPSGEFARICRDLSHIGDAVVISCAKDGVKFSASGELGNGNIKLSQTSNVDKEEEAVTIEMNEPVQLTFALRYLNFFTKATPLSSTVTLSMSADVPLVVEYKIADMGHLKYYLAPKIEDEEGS
UniProt Q9Y2T2: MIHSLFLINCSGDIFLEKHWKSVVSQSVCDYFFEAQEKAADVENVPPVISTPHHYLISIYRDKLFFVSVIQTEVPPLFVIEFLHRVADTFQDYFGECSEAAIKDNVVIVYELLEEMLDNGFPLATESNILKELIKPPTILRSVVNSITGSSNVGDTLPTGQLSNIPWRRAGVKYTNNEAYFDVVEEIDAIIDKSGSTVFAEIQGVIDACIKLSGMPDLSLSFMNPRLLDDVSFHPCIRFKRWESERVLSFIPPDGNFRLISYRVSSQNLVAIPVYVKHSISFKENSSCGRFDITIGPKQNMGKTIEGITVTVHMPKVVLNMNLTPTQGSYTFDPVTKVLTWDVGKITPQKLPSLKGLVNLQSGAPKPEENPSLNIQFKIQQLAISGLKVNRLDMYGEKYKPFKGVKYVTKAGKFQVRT
UniProt Q8WUD1: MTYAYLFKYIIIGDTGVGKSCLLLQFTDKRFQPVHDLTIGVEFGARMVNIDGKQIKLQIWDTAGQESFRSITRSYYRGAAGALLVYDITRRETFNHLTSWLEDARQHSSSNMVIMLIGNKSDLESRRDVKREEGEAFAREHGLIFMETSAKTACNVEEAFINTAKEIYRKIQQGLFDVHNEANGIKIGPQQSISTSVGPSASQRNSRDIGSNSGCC
UniProt P21912: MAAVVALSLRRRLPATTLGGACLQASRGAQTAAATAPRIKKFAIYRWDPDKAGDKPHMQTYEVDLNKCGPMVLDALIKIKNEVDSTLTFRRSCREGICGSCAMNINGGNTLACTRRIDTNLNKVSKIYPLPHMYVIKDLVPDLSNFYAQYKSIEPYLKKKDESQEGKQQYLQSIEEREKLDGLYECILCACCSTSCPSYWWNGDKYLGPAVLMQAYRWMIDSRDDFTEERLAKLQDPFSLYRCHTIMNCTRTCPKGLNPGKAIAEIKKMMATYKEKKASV

Compound: [O-][N+](C(C1=C(C(O)=C2)NC(C(C=C3)=CC=C3Cl)C4C1C=CC4)=C2Cl)=O
Assay: melting temperature shift (compound 7 minus DMSO); higher = compound stabilises the protein
Conditions: 10 µM
Method: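 Thermal proteome profiling (TMT mass spectrometry) in intact DAOY medulloblastoma cells or DAOY lysates treated with 10 µM compound 7 or DMSO, heated at 10 temperatures from 40.5 to 73.8 °C for 3 min. Melting curves were fitted with the Bioconductor TPP package, and the melting point difference between compound and vehicle is reported per protein (single curve per condition).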

[1] = system: DAOY cell lysate, treatment time: 20 min, 4 °C
[2] = system: intact DAOY cells, treatment time: 90 min, 37 °C

Target | melting temperature shift [1] | melting temperature shift [2]
DVL2 (UniProt O14641) | -0.454 °C | 0.124 °C
UniProt Q8WVR3 |  | 0.037 °C
UniProt P16220 | -0.319 °C | 
PI4K2A (UniProt Q9BTU6) | -0.668 °C | -0.207 °C
RABGEF1 (UniProt Q9UJ41) | -0.846 °C | 1.08 °C
DDHD1 (UniProt Q8NEL9) | 0.367 °C | -0.699 °C
CTR9 (UniProt Q6PD62) | -0.384 °C | 0.759 °C
ZRANB2 (UniProt O95218) | 0.816 °C | 
TBC1D4 (UniProt O60343) | -0.86 °C | 0.116 °C
HEXA (UniProt P06865) | 0.288 °C | -1.4 °C
HNRNPA3 (UniProt P51991) | 1.5 °C | -0.751 °C
UniProt A8MWX3 |  | 0.675 °C
KRAS (UniProt P01116) | 1.94 °C | -0.598 °C
UniProt Q2TAP0 |  | 0.107 °C
PSMB4 (UniProt P28070) | -0.836 °C | -0.279 °C
USP10 (UniProt Q14694) | 0.0155 °C | -0.0357 °C
ILF2 (UniProt Q12905) | -0.199 °C | -0.343 °C
UniProt Q9Y2B0 | -1.57 °C | 0.597 °C
UniProt P12109 | 0.614 °C | 0.662 °C
FNBP4 (UniProt Q8N3X1) | 1.71 °C | 
MTMR12 (UniProt Q9C0I1) | -1.95 °C | -0.577 °C
UniProt P60602 | 0.628 °C | -0.299 °C
GMPPA (UniProt Q96IJ6) | -0.841 °C | -2.03 °C

Target | melting temperature shift [1] | melting temperature shift [2]
KDM1A (UniProt O60341) | -0.0726 °C | -0.13 °C
TACC3 (UniProt Q9Y6A5) | -3.33 °C | 
PDIA5 (UniProt Q14554) | 0.701 °C | -0.929 °C
NARS (UniProt O43776) | -0.533 °C | -1.8 °C
UniProt Q8IW00 |  | -1.66 °C
CSK (UniProt P41240) | -0.445 °C | -0.126 °C
PSME3 (UniProt P61289) | -0.475 °C | 
DNAJC16 (UniProt Q9Y2G8) | 1.27 °C | 
FAM3C (UniProt Q92520) | 1.73 °C | 0.823 °C
SYNCRIP (UniProt O60506) | 0.269 °C | -0.0347 °C
ARFGAP1 (UniProt Q8N6T3) | -0.689 °C | -0.525 °C
UniProt P15954 | 3.31 °C | 
QPCTL (UniProt Q9NXS2) | 1.53 °C | -1.41 °C
NNT (UniProt Q13423) | 0.245 °C | -0.313 °C
PPM1G (UniProt O15355) | -0.88 °C | 1.34 °C
NKRF (UniProt O15226) | 1.1 °C | 1.85 °C
GNB1 (UniProt P62873) | 4.11 °C | -0.9 °C
NUP188 (UniProt Q5SRE5) | -0.244 °C | -1.02 °C
UniProt P04066 |  | -0.71 °C
PMPCB (UniProt O75439) | -0.783 °C | 0.658 °C
LYRM7 (UniProt Q5U5X0) | 0.34 °C | -0.318 °C
BAG1 (UniProt Q99933) | 0.755 °C | -0.477 °C
TTC27 (UniProt Q6P3X3) | -0.947 °C | 0.39 °C

Target | melting temperature shift [1] | melting temperature shift [2]
DOCK9 (UniProt Q9BZ29) | 1.07 °C | -1.04 °C
TMEM189 (UniProt A5PLL7) | 3.75 °C | 
UniProt Q96GP6 |  | -0.43 °C
LRPPRC (UniProt P42704) | 0.242 °C | -0.751 °C
TOR1AIP1 (UniProt Q5JTV8) | 0.973 °C | -0.29 °C
UniProt Q9C002 | 3.15 °C | -1.67 °C
ARFIP2 (UniProt P53365) | -0.979 °C | -0.62 °C
UniProt P63218 | 1.19 °C | 2.1 °C
ELP3 (UniProt Q9H9T3) | -0.494 °C | -1.01 °C
IQGAP2 (UniProt Q13576) |  | -0.876 °C
PRIM1 (UniProt P49642) | -0.986 °C | 0.613 °C
UniProt Q9UMR2 | 0.429 °C | 
OSBPL3 (UniProt Q9H4L5) | 0.629 °C | 1.07 °C
P0DMU7 (UniProt P0DMU8) | 1.6 °C | 
EXD2 (UniProt Q9NVH0) | 2.7 °C | -0.191 °C
UniProt Q5JUX0 |  | 0.0265 °C
HIP1R (UniProt O75146) | 1.47 °C | -0.624 °C
DPH6 (UniProt Q7L8W6) | -0.856 °C | -0.168 °C
UniProt Q9NNX1 | -0.04 °C | 
UniProt Q15208 | -0.762 °C | -0.46 °C
POM121C (UniProt A8CG34) | -0.481 °C | 
CD97 (UniProt P48960) | 0.227 °C | -0.915 °C
UniProt Q9Y5W8 |  | -0.0345 °C

Target | melting temperature shift [1] | melting temperature shift [2]
USP11 (UniProt P51784) | -0.763 °C | -0.119 °C
UniProt P20226 | -1.03 °C | 
CS (UniProt O75390) | 1.01 °C | 0.124 °C
TTC19 (UniProt Q6DKK2) | -1.08 °C | -1.83 °C
CCDC90B (UniProt Q9GZT6) | 1.99 °C | -0.527 °C
TUBGCP2 (UniProt Q9BSJ2) | -0.318 °C | 1.01 °C
H2AFY (UniProt O75367) |  | -0.259 °C
BCL7B (UniProt Q9BQE9) | 1.53 °C | 
UBA3 (UniProt Q8TBC4) | -0.189 °C | -0.33 °C
FAM50A (UniProt Q14320) | -0.213 °C | -0.197 °C
AKAP1 (UniProt Q92667) | 1.73 °C | 
UBE2K (UniProt P61086) | -1.5 °C | 0.142 °C
POLR2A (UniProt P24928) | -0.21 °C | 0.0215 °C
UniProt Q5THK1 | 1.42 °C | 
UniProt Q9H7F4 | 2.44 °C | 
UniProt P49841 | -1.12 °C | -0.185 °C
NDUFV2 (UniProt P19404) | 1.46 °C | 0.0578 °C
UniProt Q9BRQ0 | 1.79 °C | 
UniProt P48060 | 1.58 °C | -0.217 °C
PCNA (UniProt P12004) | -0.887 °C | 0.0182 °C
ATL2 (UniProt Q8NHH9) | 0.867 °C | -0.139 °C
UniProt P14317 | 2.07 °C | 
DHX34 (UniProt Q14147) |  | 0.095 °C

Target | melting temperature shift [1] | melting temperature shift [2]
ANAPC4 (UniProt Q9UJX5) | 0.067 °C | 
ANKZF1 (UniProt Q9H8Y5) | -2.09 °C | -0.861 °C
P0DI82 (UniProt P0DI81) | -1.05 °C | 
AP3M1 (UniProt Q9Y2T2) | -0.538 °C | -0.906 °C
UniProt P43359 | -1.62 °C | 
TCERG1 (UniProt O14776) | -0.0869 °C | -0.308 °C
UniProt Q8WUD1 | -0.0621 °C | 0.741 °C
CLPX (UniProt O76031) | 0.192 °C | -2.13 °C
CSRP2 (UniProt Q16527) | 0.389 °C | 
VPS41 (UniProt P49754) | -1.98 °C | -0.0653 °C
VDAC1 (UniProt P21796) | 3.09 °C | 0.388 °C
PLCB3 (UniProt Q01970) | 0.262 °C | 0.049 °C
B3GAT3 (UniProt O94766) | 1.06 °C | 0.184 °C
GOLGA7 (UniProt Q7Z5G4) | 0.761 °C | 1.39 °C
ZDHHC5 (UniProt Q9C0B5) |  | -2.56 °C
ATG3 (UniProt Q9NT62) | -0.216 °C | -1 °C
SIN3B (UniProt O75182) | -0.0589 °C | 
SDHB (UniProt P21912) | 1.99 °C | 1.3 °C
MTA1 (UniProt Q13330) | 0.456 °C | -0.214 °C
GPD2 (UniProt P43304) | 3.15 °C | 0.417 °C
UniProt P38570 |  | 1.8 °C
UniProt Q9H7C4 | -2.41 °C | -0.46 °C

35 consecutive entries from above:
Target | melting temperature shift [1] | melting temperature shift [2]
AKAP1 (UniProt Q92667) | 1.73 °C | 
UBE2K (UniProt P61086) | -1.5 °C | 0.142 °C
POLR2A (UniProt P24928) | -0.21 °C | 0.0215 °C
UniProt Q5THK1 | 1.42 °C | 
UniProt Q9H7F4 | 2.44 °C | 
UniProt P49841 | -1.12 °C | -0.185 °C
NDUFV2 (UniProt P19404) | 1.46 °C | 0.0578 °C
UniProt Q9BRQ0 | 1.79 °C | 
UniProt P48060 | 1.58 °C | -0.217 °C
PCNA (UniProt P12004) | -0.887 °C | 0.0182 °C
ATL2 (UniProt Q8NHH9) | 0.867 °C | -0.139 °C
UniProt P14317 | 2.07 °C | 
DHX34 (UniProt Q14147) |  | 0.095 °C
ANAPC4 (UniProt Q9UJX5) | 0.067 °C | 
ANKZF1 (UniProt Q9H8Y5) | -2.09 °C | -0.861 °C
P0DI82 (UniProt P0DI81) | -1.05 °C | 
AP3M1 (UniProt Q9Y2T2) | -0.538 °C | -0.906 °C
UniProt P43359 | -1.62 °C | 
TCERG1 (UniProt O14776) | -0.0869 °C | -0.308 °C
UniProt Q8WUD1 | -0.0621 °C | 0.741 °C
CLPX (UniProt O76031) | 0.192 °C | -2.13 °C
CSRP2 (UniProt Q16527) | 0.389 °C | 
VPS41 (UniProt P49754) | -1.98 °C | -0.0653 °C
VDAC1 (UniProt P21796) | 3.09 °C | 0.388 °C
PLCB3 (UniProt Q01970) | 0.262 °C | 0.049 °C
B3GAT3 (UniProt O94766) | 1.06 °C | 0.184 °C
GOLGA7 (UniProt Q7Z5G4) | 0.761 °C | 1.39 °C
ZDHHC5 (UniProt Q9C0B5) |  | -2.56 °C
ATG3 (UniProt Q9NT62) | -0.216 °C | -1 °C
SIN3B (UniProt O75182) | -0.0589 °C | 
SDHB (UniProt P21912) | 1.99 °C | 1.3 °C
MTA1 (UniProt Q13330) | 0.456 °C | -0.214 °C
GPD2 (UniProt P43304) | 3.15 °C | 0.417 °C
UniProt P38570 |  | 1.8 °C
UniProt Q9H7C4 | -2.41 °C | -0.46 °C

Many values rest on one well or one pass, so single values are uncertain.
